Test results: the supplement of paper PMC4604168 (melanoma cell lines)
The other results are listed elsewhere or left out. Repeats are few or missing, and single values can be far off.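 The apoptosis fraction was the count of cleaved-PARP antibody-stained nuclei relative to all DNA-stained nuclei, imaged in 1,536-well plates. Screening doses were set so most cells survived, and baseline and induced cleaved-PARP levels vary greatly across cell lines.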

test system: SkMel2; experiment: cleaved PARP positive nuclei fraction relative to DMSO control; melanoma cells; higher = more apoptosis; settings: library dose: low library concentration; 72 h

SMILES	cleaved PARP positive nuclei fraction [%]
CC(C)(C)c1cnc(CSc2cnc(NC(=O)C3CCNCC3)s2)o1 + Cc1cc(N2CCOCC2)cc2[nH]c(-c3c(NC[C@@H](O)c4cccc(Cl)c4)cc[nH]c3=O)nc12 [BMS536924] (first compound 0.01 µM, partner dose 0.2 µM)	214
OCc1c[nH]c2ccccc12 [Indole-3-carbinol] + Nc1cccc2c1CN(C1CCC(=O)NC1=O)C2=O [lenalidomide] (first compound 0.8 µM, partner dose 1 µM)	135
Cn1c(Nc2ccc(C(F)(F)F)cc2)nc2cc(Oc3ccnc(-c4ncc(C(F)(F)F)[nH]4)c3)ccc21 + Nc1cccc2c1CN(C1CCC(=O)NC1=O)C2=O [lenalidomide] (first compound 0.08 µM, partner dose 1 µM)	120
Clc1ccc(Nc2nnc(Cc3ccncc3)c3ccccc23)cc1 [vatalanib] + Cc1nc(Nc2ncc(C(=O)Nc3c(C)cccc3Cl)s2)cc(N2CCN(CCO)CC2)n1 [dasatanib] (first compound 2 µM, partner dose 0.004 µM)	135
OCc1c[nH]c2ccccc12 [Indole-3-carbinol] + O=S(=O)(c1ccccc1)N(CC(F)(F)F)c1ccc(C(O)(C(F)(F)F)C(F)(F)F)cc1 [T0901317] (first compound 0.8 µM, partner dose 1.4 µM)	87
C=CCNC1=C2C[C@@H](C)C[C@H](OC)[C@H](O)[C@@H](C)/C=C(\C)[C@H](OC(N)=O)[C@@H](OC)/C=C\C=C(/C)C(=O)NC(=CC1=O)C2=O [Tanespimycin] + Nc1cccc2c1CN(C1CCC(=O)NC1=O)C2=O [lenalidomide] (first compound 0.002 µM, partner dose 1 µM)	112
